# Data from PMC7819943, “Rice protein-binding microarrays: a tool to detect cis-acting elements near promoter regions in rice”.
# Protein sequences, listed by entry. Tags and fused reporters are not part of them.
# UniProt Q0JBA9, entry or part of it: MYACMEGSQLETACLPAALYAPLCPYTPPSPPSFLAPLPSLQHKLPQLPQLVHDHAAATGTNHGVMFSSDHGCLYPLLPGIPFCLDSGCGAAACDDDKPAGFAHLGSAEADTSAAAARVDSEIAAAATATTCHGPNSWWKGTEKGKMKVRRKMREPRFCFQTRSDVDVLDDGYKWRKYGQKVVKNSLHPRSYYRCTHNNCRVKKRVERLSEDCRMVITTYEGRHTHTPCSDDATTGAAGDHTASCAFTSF
# The other results are listed elsewhere or left out.
# Biological target: OsWRKY34 (Oryza sativa, UniProt Q0JBA9 1-250)
# Test: protein-binding microarray (RPBM); PBS, 2% BSA, 51.3 ng/ul salmon testes DNA, 50 uM zinc acetate, 200 nM TF, 25 C, 1 h; high values mean tight binding
# Conditions: protein: recombinant; tags: N-terminal polyhistidine and DsRed monomer fusion (pET32a); label: CyDye5-dUTP incorporated in the synthesized complementary strand; 3' TTTTT single-stranded linker to array surface; dsDNA, one strand shown
# Method in brief: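 The binding signal is fluorescence intensity per array feature (arbitrary units). Readings came from an Axon 4000B scanner after a washed, 2% BSA-blocked, double-stranded custom Agilent array had been incubated for 1 h at 25 °C with 200 nM protein and 50 µM zinc acetate. The protein was a Ni–NTA-purified transcription factor fused N-terminally to polyhistidine and DsRed, expressed in E. coli BL21-CodonPlus.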
row,Sequence,binding signal
1,GAGGATGAGGAGATTATTATGTTCTGGTTGCCTGCCCTATCGGAGTCACCTAGTGCAG,8490 fluorescence intensity (a.u.)
2,ACCGCCTTTTCGCCTGTCTGTTTTATAACTCACCATTATACGGAGTCACCTAGTGCAG,9080 fluorescence intensity (a.u.)
3,GACCCTTTTTATCCCGGTGCATCGTGTGCAGCAAACTTTTCGGAGTCACCTAGTGCAG,8450 fluorescence intensity (a.u.)
4,AAACGAGCCTTTCATCTGCTTCGCCCGCTATCTCCCACAACGGAGTCACCTAGTGCAG,10800 fluorescence intensity (a.u.)
5,TCCTATGCCTGCAGCCTGTATCAAAAAATTTTCACAATGTCGGAGTCACCTAGTGCAG,8480 fluorescence intensity (a.u.)
6,ATCCATGCTCTTACCGTCATATTTTCCATAATTTCACTGTCGGAGTCACCTAGTGCAG,11700 fluorescence intensity (a.u.)
7,TCTATTCCTACGTTTTTCTCATTTATCTGTTTTCTCAATCCGGAGTCACCTAGTGCAG,15500 fluorescence intensity (a.u.)
8,AATTGGTCCTACCCTAATATACGCTTTTTTTTATAGTTCACGGAGTCACCTAGTGCAG,8560 fluorescence intensity (a.u.)
9,CTCCAATGCTACATGCCAAGTCATCCGGACTAAACGCGTCCGGAGTCACCTAGTGCAG,9910 fluorescence intensity (a.u.)
10,CTTCATTTCCAGGTCATGGGCCTTCTCCGGCTTTAATAGACGGAGTCACCTAGTGCAG,8530 fluorescence intensity (a.u.)
11,AGTCCAGCGAGACCCCATCGCCGCCCACCATCCCTCAGTCCGGAGTCACCTAGTGCAG,8780 fluorescence intensity (a.u.)
12,GGCCATCATCATTTGTTCCTCATCTTACTCTAGCTTCTCCCGGAGTCACCTAGTGCAG,9470 fluorescence intensity (a.u.)
13,CCTTAGGACTTATTATCCCTATTTTTACTGCTTCTTAATACGGAGTCACCTAGTGCAG,8410 fluorescence intensity (a.u.)
14,CTCATTCTTTTTTCCTTTGATTTGATTCTTCGCTGCTAACCGGAGTCACCTAGTGCAG,8460 fluorescence intensity (a.u.)
15,GGTGGTCCAAAGATATGCACTCTCCCATACCCTAACAACACGGAGTCACCTAGTGCAG,9020 fluorescence intensity (a.u.)
16,GTTATTTTAATTTACTTTGGATCACCCTGATTATCGTTTCCGGAGTCACCTAGTGCAG,8020 fluorescence intensity (a.u.)
17,CCTGTTAATATGTTCTCAAGTTTGCTACATGTAATTTTTACGGAGTCACCTAGTGCAG,11000 fluorescence intensity (a.u.)
18,AGGAGTTGTTTTGTTGGCACAATTTGCGAGTTGGATGGGGCGGAGTCACCTAGTGCAG,8400 fluorescence intensity (a.u.)
19,ATCCTTTTTCCTTGCATGTCTCCTTTTCTGTTGATCATTTCGGAGTCACCTAGTGCAG,14700 fluorescence intensity (a.u.)
20,TAGTTTTTATTTTTCTTTTCTAATGCTTCTTGGGCATAATCGGAGTCACCTAGTGCAG,9520 fluorescence intensity (a.u.)
21,CGACCCCACCGCGAACTCTCCCGTCCTATCCGCAGCGGAGCGGAGTCACCTAGTGCAG,10900 fluorescence intensity (a.u.)
22,GTCCTCGGCTAATGCCGCCTCGTCGTCGTCTTCCTCCTCGCGGAGTCACCTAGTGCAG,8560 fluorescence intensity (a.u.)
23,ATGGGGTTGTTTGGTTGATGGCTAAGTTTACCATATCTCACGGAGTCACCTAGTGCAG,10900 fluorescence intensity (a.u.)
24,GTCTCGTCCTTCATGGTTCGACAACATCGACTCTTCGGCGCGGAGTCACCTAGTGCAG,8480 fluorescence intensity (a.u.)
25,TTGTCTCATTGCCAGTGTAAATCCCCTGAGGAATCTAGTACGGAGTCACCTAGTGCAG,8690 fluorescence intensity (a.u.)
26,AATGAATATTCCATCTGACCTTGATTTCTTTACTCCTTGACGGAGTCACCTAGTGCAG,9470 fluorescence intensity (a.u.)
27,CTTACTATACTATTAATATCCGGTCCCACCTGTCATACACCGGAGTCACCTAGTGCAG,8290 fluorescence intensity (a.u.)

row,Sequence,binding signal
1,TTCTTTCCATAGTTCCCATGCCTGCAAAATTCAGGAGTTCCGGAGTCACCTAGTGCAG,8480 fluorescence intensity (a.u.)
2,ACCGTGACTTTGGGAGTATTTCTAGCCGTCCGATCCACAGCGGAGTCACCTAGTGCAG,9110 fluorescence intensity (a.u.)
3,ACCATTTGTTTCATCCTGGACCATAGCCGCTCATCTTCTCCGGAGTCACCTAGTGCAG,8270 fluorescence intensity (a.u.)
4,CGAGGGACCCGTTGTATCTGGTTTTGGGGTTCAAGGACGACGGAGTCACCTAGTGCAG,9540 fluorescence intensity (a.u.)
5,TTTTTCGACCATTTTCATCCCTAATCGTGCATATTTGTTCCGGAGTCACCTAGTGCAG,8920 fluorescence intensity (a.u.)
6,GGCGCAGTCTCCATGCCTCTGGTGATCTTTGTATTCTTTTCGGAGTCACCTAGTGCAG,9440 fluorescence intensity (a.u.)
7,CCGACCCGACCGTCTCACCCTGCACGCTGTCGTCCCTCTCCGGAGTCACCTAGTGCAG,13800 fluorescence intensity (a.u.)
8,GGTGGGCGGCGGCATATCTGGTGGTGGTGGACCGTGCTGCCGGAGTCACCTAGTGCAG,8410 fluorescence intensity (a.u.)
9,CACTCAAAATCTCTTTCGTGTCCACCTCACCTTGCACCACCGGAGTCACCTAGTGCAG,8300 fluorescence intensity (a.u.)
10,CCAAGCAGTTGGTGGCTCTGTTACGTACTACATGCGCGCGCGGAGTCACCTAGTGCAG,12000 fluorescence intensity (a.u.)
11,TTAGCAACCTCTTTGTGGCCTCGACTGCTGACCTGATTTTCGGAGTCACCTAGTGCAG,11400 fluorescence intensity (a.u.)
12,GTTTCCTTGCTGCCCGGCCGCCTGCCCCTCAACCTCATCGCGGAGTCACCTAGTGCAG,11300 fluorescence intensity (a.u.)
13,TGACTTTTTAGCATATGTTTGACCGCTCGTCTTATTCAAACGGAGTCACCTAGTGCAG,8220 fluorescence intensity (a.u.)
14,GGCCCATTTCGTTGTCCGTCCAGCCGCGCGCCGCCGTGCCCGGAGTCACCTAGTGCAG,8540 fluorescence intensity (a.u.)
15,GTGGTTAAAACTTTTATATACATGTTCTTAGCGATCTAAACGGAGTCACCTAGTGCAG,10000 fluorescence intensity (a.u.)
16,CTGCGTCCCGCCGTCGACGAGCTCCTTCGGGTTCATCATGCGGAGTCACCTAGTGCAG,10700 fluorescence intensity (a.u.)
17,TGGTCGTTTATACACACGTTAGCTTTAGGGTCATGTTGTACGGAGTCACCTAGTGCAG,8410 fluorescence intensity (a.u.)
18,TCCGCTTTTGCTTTGCTCTGCTCTGCTGTTTCCCTCTCCTCGGAGTCACCTAGTGCAG,8900 fluorescence intensity (a.u.)
19,GCTAGCCACTCTCTTACGCAACCCAGTCTGGCCCAATTATCGGAGTCACCTAGTGCAG,9660 fluorescence intensity (a.u.)
20,ATATTCTGAATTCAGCATCCGTTCACCTAGTTCGTGTTACCGGAGTCACCTAGTGCAG,8910 fluorescence intensity (a.u.)
21,ATTTCTCTCTCATATTTCTTCTCTCCTCTCTCCTCTACCTCGGAGTCACCTAGTGCAG,9680 fluorescence intensity (a.u.)
22,CCATTCCTCTGTTTACCTCTGCTCTGTATACATACTCCGGCGGAGTCACCTAGTGCAG,9220 fluorescence intensity (a.u.)
23,CGCTCGATAGAATTCTCTCTGCTTCGCCCTTCGCGGTTTACGGAGTCACCTAGTGCAG,9550 fluorescence intensity (a.u.)
24,AATCTTTTCTTCTTCCTTTCTTTCTCCTCTTCCTTTATATCGGAGTCACCTAGTGCAG,8540 fluorescence intensity (a.u.)
25,TTAATTTCGGCTTGGTTTAGTTCACAACTTTTTCTTCAAACGGAGTCACCTAGTGCAG,8500 fluorescence intensity (a.u.)
26,CTGCGCCTAACTTTGATCGTTCGTCTTATTTGATTTTTTTCGGAGTCACCTAGTGCAG,12300 fluorescence intensity (a.u.)
27,CCTCTCTCTTTCTAACCATTTTCTTGTTTTGTTGCCTTGCCGGAGTCACCTAGTGCAG,10900 fluorescence intensity (a.u.)

# 14 entries from above, as tab-separated lines:
row	Sequence	binding signal
11	TTAGCAACCTCTTTGTGGCCTCGACTGCTGACCTGATTTTCGGAGTCACCTAGTGCAG	11400 fluorescence intensity (a.u.)
12	GTTTCCTTGCTGCCCGGCCGCCTGCCCCTCAACCTCATCGCGGAGTCACCTAGTGCAG	11300 fluorescence intensity (a.u.)
13	TGACTTTTTAGCATATGTTTGACCGCTCGTCTTATTCAAACGGAGTCACCTAGTGCAG	8220 fluorescence intensity (a.u.)
14	GGCCCATTTCGTTGTCCGTCCAGCCGCGCGCCGCCGTGCCCGGAGTCACCTAGTGCAG	8540 fluorescence intensity (a.u.)
15	GTGGTTAAAACTTTTATATACATGTTCTTAGCGATCTAAACGGAGTCACCTAGTGCAG	10000 fluorescence intensity (a.u.)
16	CTGCGTCCCGCCGTCGACGAGCTCCTTCGGGTTCATCATGCGGAGTCACCTAGTGCAG	10700 fluorescence intensity (a.u.)
17	TGGTCGTTTATACACACGTTAGCTTTAGGGTCATGTTGTACGGAGTCACCTAGTGCAG	8410 fluorescence intensity (a.u.)
18	TCCGCTTTTGCTTTGCTCTGCTCTGCTGTTTCCCTCTCCTCGGAGTCACCTAGTGCAG	8900 fluorescence intensity (a.u.)
19	GCTAGCCACTCTCTTACGCAACCCAGTCTGGCCCAATTATCGGAGTCACCTAGTGCAG	9660 fluorescence intensity (a.u.)
20	ATATTCTGAATTCAGCATCCGTTCACCTAGTTCGTGTTACCGGAGTCACCTAGTGCAG	8910 fluorescence intensity (a.u.)
21	ATTTCTCTCTCATATTTCTTCTCTCCTCTCTCCTCTACCTCGGAGTCACCTAGTGCAG	9680 fluorescence intensity (a.u.)
22	CCATTCCTCTGTTTACCTCTGCTCTGTATACATACTCCGGCGGAGTCACCTAGTGCAG	9220 fluorescence intensity (a.u.)
23	CGCTCGATAGAATTCTCTCTGCTTCGCCCTTCGCGGTTTACGGAGTCACCTAGTGCAG	9550 fluorescence intensity (a.u.)
24	AATCTTTTCTTCTTCCTTTCTTTCTCCTCTTCCTTTATATCGGAGTCACCTAGTGCAG	8540 fluorescence intensity (a.u.)
